Source: PubChem BioAssay AID686938 (Drosophila RNAi Screening Center, 2013)
The deposit covers about 23,000 reagents; below is an unselected part of those with a known target gene and a result. In the full data, 75 (0.33%) got an active call. 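Raw plate signals without normalisation; calls rest on plate z-scores that were not deposited; ratio present for only 364 wells.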 Names joined by + are all predicted targets of the reagent. No sequences are given here. The record does not give: the dose of the treatment.

Test: 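Fly genes required for calcium entry once internal stores are emptied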 (primary screen)
Cell system: Drosophila S2R+ cells
Reagent: long dsRNA against Drosophila genes, about 0.25 µg dsRNA per well, roughly 10,000 cells
Time to read-out: 5 days of knock-down before the calcium assay
Challenge: thapsigargin (SERCA pump blocker) to empty calcium stores; entry signal taken 4 min after adding it
Read-out: 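Per-well fluo-4 fluorescence in two replicates, unnormalised, measured in resting cells and 4 min after store depletion by the SERCA blocker thapsigargin; ratio of the two present in few wells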
Reading the numbers: calcium entry signal: higher = stronger calcium signal after store depletion; resting calcium signal: higher = higher resting calcium signal
Hit rule: 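Called when the plate z-score of the entry-to-rest ratio, mean of duplicates, falls below −3; wells with low overall dye signal (Fmax z below −2) or more than five off-targets excluded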
Calls: active = strongly reduced calcium entry; inactive = no strong reduction

no.	Target gene	DRSC id	calcium entry signal, replicate 1 (fluorescence units)	calcium entry signal, replicate 2 (fluorescence units)	resting calcium signal, replicate 1 (fluorescence units)	resting calcium signal, replicate 2 (fluorescence units)	activity call
1	CG13738	DRSC10065	2.77e7	3.50e7	1.61e7	1.77e7	inactive
2	CG13579	DRSC04215	4.85e7	5.08e7	2.45e7	2.26e7	inactive
3	idc	DRSC15680	4.09e7	3.32e7	1.80e7	1.45e7	inactive
4	CG6567 + CG4565	DRSC15599	4.07e7	3.72e7	1.96e7	1.93e7	inactive
5	CG13282	DRSC02254	3.53e7	2.43e7	1.62e7	1.17e7	inactive
6	papi	DRSC00693	3.79e7		1.88e7		inactive
7	CG34292	DRSC13807	3.18e7	2.28e7	1.61e7	1.26e7	inactive
8	Hr38	DRSC03345	4.85e7	6.25e7	2.54e7	2.82e7	inactive
9	Hr38	DRSC23230	3.32e7	3.98e7	1.54e7	1.79e7	inactive
10	CG18190	DRSC06714	4.14e7	3.69e7	1.71e7	1.96e7	inactive
11	stas	DRSC20104	6.11e7	5.53e7	2.57e7	2.17e7	inactive
12	beta-Spec	DRSC20311	2.99e7	2.80e7	1.48e7	1.33e7	inactive
13	hoe2	DRSC00459	3.07e7	3.47e7	1.49e7	1.56e7	inactive
14	CG13407	DRSC14583	4.61e7	4.69e7	6.21e7	2.13e7	inactive
15	Ork1	DRSC20266	2.53e7	3.10e7	1.20e7	1.51e7	inactive
16	CG33695 + cana	DRSC01163	2.56e7	2.45e7	1.45e7	1.23e7	inactive
17	CG33695 + cana	DRSC03503	3.48e7	5.07e7	1.74e7	2.09e7	inactive
18	CG6749	DRSC10704	2.68e7	4.78e7	1.49e7	1.99e7	inactive
19	CG33159	DRSC08199	4.32e7	3.23e7	2.04e7	1.69e7	inactive
20	CG8860	DRSC07291	2.42e7	2.89e7	1.49e7	1.63e7	inactive
21	Sf3a2	DRSC09801	2.81e7	2.19e7	2.33e7	1.26e7	inactive
22	CG7059	DRSC16187	4.25e7	4.60e7	6.06e7	2.08e7	inactive
23	CG30192	DRSC03977	3.01e7	4.28e7	1.45e7	4.24e7	inactive
24	CG33170	DRSC11854	2.57e7	3.68e7	1.13e7	1.59e7	inactive
25	CG33170	DRSC22366	3.88e7	4.78e7	1.84e7	2.76e7	inactive
26	Septin5	DRSC06843	3.41e7	3.11e7	1.57e7	1.43e7	inactive
27	bor	DRSC16915	2.72e7	3.20e7	1.30e7	9.23e7	inactive
28	CG42337	DRSC11686	3.27e7	4.77e7	1.54e7	2.11e7	inactive
29	CG42337	DRSC11687	3.17e7	4.73e7	1.93e7	2.28e7	inactive
30	CG42337	DRSC23099	4.32e7	3.58e7	1.68e7	1.40e7	inactive
31	tapas	DRSC05950	3.80e7	3.44e7	1.72e7	1.76e7	inactive
32	CG3216	DRSC04347	4.31e7	5.05e7	2.07e7	2.17e7	inactive
33	peng	DRSC20583	4.50e7	4.06e7	2.03e7	1.63e7	inactive
34	CG10359	DRSC08156	4.67e7	3.66e7	2.87e7	1.61e7	inactive
35	mthl3	DRSC06997	2.83e7	2.81e7	1.35e7	1.44e7	inactive
36	CG15312	DRSC18000	4.08e7	4.25e7	1.82e7	1.95e7	inactive
37	CG17826	DRSC10289	3.36e7	4.61e7	1.70e7	2.03e7	inactive
38	CG16799	DRSC06626	2.92e7	3.35e7	1.56e7	1.59e7	inactive
39	CG16799	DRSC21553	4.33e7	3.43e7	2.46e7	1.52e7	inactive
40	Socs16D	DRSC20087	2.92e7	3.79e7	1.55e7	1.69e7	inactive
41	Socs16D	DRSC23165	3.62e7	3.35e7	1.92e7	1.29e7	inactive
42	dwg	DRSC18766	3.68e7	4.47e7	1.82e7	2.20e7	inactive
43	CG18367	DRSC06545	4.51e7	3.41e7	2.01e7	1.72e7	inactive
44	Hen1	DRSC06139	3.94e7	4.90e7	1.70e7	2.43e7	inactive
45	Hen1	DRSC06140	1.87e7	3.92e7	9.86e6	1.54e7	inactive
46	CG1354	DRSC17902	3.57e7	4.71e7	1.82e7	2.01e7	inactive
47	CG6220	DRSC06969	3.57e7	4.72e7	1.71e7	2.12e7	inactive
48	CG33758	DRSC05158	2.63e7	3.43e7	1.26e7	1.72e7	inactive
49	mRpL21	DRSC11100	2.62e7	3.79e7	1.17e7	1.60e7	inactive
50	IntS2	DRSC20094	2.78e7	3.14e7	1.40e7	1.61e7	inactive
51	lncRNA:noe	DRSC22747	3.67e7	3.56e7	1.88e7	1.49e7	inactive
52	CG5265	DRSC15756	2.99e7	5.67e7	1.42e7	6.87e7	inactive
53	Grp170	DRSC18524	4.00e7	4.07e7	1.91e7	2.02e7	inactive
54	Rbf2	DRSC16816	3.26e7	6.65e7	1.59e7	5.83e7	inactive
55	GM130	DRSC04617	3.93e7		1.90e7		inactive
56	mute	DRSC06562	2.71e7	1.99e7	1.63e7	1.14e7	inactive
57	mute	DRSC22931	2.23e7	1.98e7	1.38e7	1.17e7	inactive
58	Saf6	DRSC00633	3.38e7		2.09e7		inactive

Records above whose target name begins with P or p:
Target gene	DRSC id	calcium entry signal, replicate 1 (fluorescence units)	calcium entry signal, replicate 2 (fluorescence units)	resting calcium signal, replicate 1 (fluorescence units)	resting calcium signal, replicate 2 (fluorescence units)	activity call
papi	DRSC00693	3.79e7		1.88e7		inactive
peng	DRSC20583	4.50e7	4.06e7	2.03e7	1.63e7	inactive
